# Values from PubChem BioAssay AID1508597 (Cure First, 2020).
# Aim: 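Genes whose silencing sensitises or protects ovarian cancer cells against rucaparib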 (primary screen)
# Cells: human ovarian carcinoma lines grown from tumours: OCI-P5x (papillary serous) and OCI-C5x (clear cell)
# Knock-down reagent: siRNA pool against human genes, 1.25 pmol siRNA per well
# Duration: 72 h or 96 h, depending on the cell culture
# Treatment: rucaparib 20 µM (about IC30) or vehicle, present until read-out
# Rucaparib or vehicle: Rucaparib
# Cell line: OCI-C5x (clear cell)
# Read-out: 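ATP luminescence measured at 72 or 96 h according to the culture, then normalised and expressed as percent viability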
# Scale: viability, normalised: higher = more viable cells remaining
# Rule for the call: 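a well counts as a hit if its normalised viability is under 80 percent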
# Calls: active = viability under 80%; inactive = viability 80% or more
# Shown is an unselected part of the about 2,100 reagents, under one of the conditions tested. 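Calls flag viability under 80% in either arm, not effects specific to rucaparib; the reference for percent is not stated.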 Some reagents were tested in more than one well and are listed for each. The record does not give: the 100% reference.
Gene,technical replicate,"viability, normalised (%)",Call
DHX30 (GeneID 22907),1,46.1,active
DHX30 (GeneID 22907),2,55.3,active
DHX30 (GeneID 22907),3,26,active
PTTG1 (GeneID 9232),1,42.8,active
PTTG1 (GeneID 9232),1,47.2,active
PTTG1 (GeneID 9232),2,39.6,active
PTTG1 (GeneID 9232),2,51.2,active
PTTG1 (GeneID 9232),3,54.9,active
PTTG1 (GeneID 9232),3,36.4,active
STYK1 (GeneID 55359),1,67.6,active
STYK1 (GeneID 55359),2,48.8,active
STYK1 (GeneID 55359),3,48.5,active
H2AX (GeneID 3014),1,53.9,active
H2AX (GeneID 3014),2,55.2,active
H2AX (GeneID 3014),3,52.2,active
BRWD1 (GeneID 54014),1,56.1,active
BRWD1 (GeneID 54014),2,47.4,active
BRWD1 (GeneID 54014),3,37,active
BCL2 (GeneID 596),1,88.5,inactive
BCL2 (GeneID 596),2,66.5,active
BCL2 (GeneID 596),3,56.6,active
ERCC6L (GeneID 54821),1,55.8,active
ERCC6L (GeneID 54821),2,47.6,active
ERCC6L (GeneID 54821),3,53.5,active
FNTB (GeneID 2342),1,34.3,active
FNTB (GeneID 2342),2,44.8,active
FNTB (GeneID 2342),3,24.7,active
TGFBR2 (GeneID 7048),1,44.8,active
TGFBR2 (GeneID 7048),2,56.4,active
TGFBR2 (GeneID 7048),3,49.1,active
TAF1 (GeneID 6872),1,49.8,active
TAF1 (GeneID 6872),1,40.4,active
TAF1 (GeneID 6872),2,50.9,active
TAF1 (GeneID 6872),2,53.8,active
TAF1 (GeneID 6872),3,39.2,active
TAF1 (GeneID 6872),3,36.9,active
MUTYH (GeneID 4595),1,40.4,active
MUTYH (GeneID 4595),2,46.3,active
MUTYH (GeneID 4595),3,36.4,active
